Test results as given in publication PMC12174371.
Where a chain is given by its changes, count along the chain named. Numbers in names are those of the source. No constants are given. Whether binding was seen depends on the method and setting. Binding seen in cells or lysates may run through a third protein. Some entries that bind do so weakly or less than the wild type.

Chains of the proteins cited; added tags and fusions are not shown.
UniProt O43143: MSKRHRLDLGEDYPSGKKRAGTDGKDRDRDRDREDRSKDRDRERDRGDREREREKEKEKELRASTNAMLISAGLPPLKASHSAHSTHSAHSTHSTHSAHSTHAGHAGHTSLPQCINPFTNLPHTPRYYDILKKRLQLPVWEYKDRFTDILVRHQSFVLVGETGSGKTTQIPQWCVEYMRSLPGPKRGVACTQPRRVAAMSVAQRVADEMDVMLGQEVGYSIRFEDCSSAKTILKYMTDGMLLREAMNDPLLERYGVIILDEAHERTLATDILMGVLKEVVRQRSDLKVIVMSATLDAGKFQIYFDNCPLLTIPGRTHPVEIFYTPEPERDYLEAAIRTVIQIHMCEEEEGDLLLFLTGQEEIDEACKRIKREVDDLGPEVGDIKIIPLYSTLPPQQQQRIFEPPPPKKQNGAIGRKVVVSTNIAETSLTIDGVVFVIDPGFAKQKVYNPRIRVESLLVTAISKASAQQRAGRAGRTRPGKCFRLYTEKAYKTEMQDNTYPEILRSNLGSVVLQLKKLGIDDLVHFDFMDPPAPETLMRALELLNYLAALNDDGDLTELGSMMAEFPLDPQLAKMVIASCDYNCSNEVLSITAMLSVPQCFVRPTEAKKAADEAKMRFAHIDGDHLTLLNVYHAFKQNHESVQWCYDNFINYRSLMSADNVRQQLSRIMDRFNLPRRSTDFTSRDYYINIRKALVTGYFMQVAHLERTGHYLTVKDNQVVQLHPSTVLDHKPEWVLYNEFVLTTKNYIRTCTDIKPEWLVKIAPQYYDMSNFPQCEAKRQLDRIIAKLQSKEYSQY
UniProt Q7Z434: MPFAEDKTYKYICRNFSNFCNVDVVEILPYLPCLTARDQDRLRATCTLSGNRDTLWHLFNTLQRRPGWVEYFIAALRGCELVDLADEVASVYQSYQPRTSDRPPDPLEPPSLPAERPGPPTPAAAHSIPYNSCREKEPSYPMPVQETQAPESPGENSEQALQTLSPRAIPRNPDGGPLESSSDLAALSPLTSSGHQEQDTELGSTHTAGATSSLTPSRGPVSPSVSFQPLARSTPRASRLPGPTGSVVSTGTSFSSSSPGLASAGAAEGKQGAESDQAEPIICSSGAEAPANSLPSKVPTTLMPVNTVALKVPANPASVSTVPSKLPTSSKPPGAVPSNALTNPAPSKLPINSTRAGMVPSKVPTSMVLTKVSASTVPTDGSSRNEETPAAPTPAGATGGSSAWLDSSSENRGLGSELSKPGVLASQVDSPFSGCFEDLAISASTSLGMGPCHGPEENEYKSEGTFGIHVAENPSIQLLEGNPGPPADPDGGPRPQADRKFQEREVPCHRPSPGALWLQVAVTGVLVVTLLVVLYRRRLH

B1: wild type NUDCD1 (L252), NudC Domain Containing 1 (protein, UniProt Q96RS6 1-583)
chain: MEVAANCSLRVKRPLLDPRFEGYKLSLEPLPCYQLELDAAVAEVKLRDDQYTLEHMHAFGMYNYLHCDSWYQDSVYYIDTLGRIMNLTVMLDTALGKPREVFRLPTDLTACDNRLCASIHFSSSTWVTLSDGTGRLYVIGTGERGNSASEKWEIMFNEELGDPFIIIHSISLLNAEEHSIATLLLRIEKEELDMKGSGFYVSLEWVTISKKNQDNKKYEIIKRDILRGKSVPHYAAIEPDGNGLMIVSYKSLTFVQAGQDLEENMDEDISEKIKEPLYYWQQTEDDLTVTIRLPEDSTKEDIQIQFLPDHINIVLKDHQFLEGKLYSSIDHESSTWIIKESNSLEISLIKKNEGLTWPELVIGDKQGELIRDSAQCAAIAERLMHLTSEELNPNPDKEKPPCNAQELEECDIFFEESSSLCRFDGNTLKTTHVVNLGSNQYLFSVIVDPKEMPCFCLRHDVDALLWQPHSSKQDDMWEHIATFNALGYVQASKRDKKFFACAPNYSYAALCECLRRVFIYRQPAPMSTVLYNRKEGRQVGQVAKQQVASLETNDPILGFQATNERLFVLTTKNLFLIKVNTEN
B2: NUDCD1 p.L252F variant (protein, UniProt Q96RS6 1-583)
chain: B1 chain with L252F

Biological target: DEAH-Box Helicase 15 (DHX15) (human (endogenous in A549-ACE2)) (UniProt O43143)
Experiment: co-IP

binding, binds:
Mitochondrial Antiviral Signalling Protein (MAVS) (from UniProt Q7Z434 1-540)
B1
B2
